This passage reports binding results from patent US9193792.

Amino acid sequences for entries named in this document (tags omitted). Residues count along the entry.
UniProt P35968, residues 20-764: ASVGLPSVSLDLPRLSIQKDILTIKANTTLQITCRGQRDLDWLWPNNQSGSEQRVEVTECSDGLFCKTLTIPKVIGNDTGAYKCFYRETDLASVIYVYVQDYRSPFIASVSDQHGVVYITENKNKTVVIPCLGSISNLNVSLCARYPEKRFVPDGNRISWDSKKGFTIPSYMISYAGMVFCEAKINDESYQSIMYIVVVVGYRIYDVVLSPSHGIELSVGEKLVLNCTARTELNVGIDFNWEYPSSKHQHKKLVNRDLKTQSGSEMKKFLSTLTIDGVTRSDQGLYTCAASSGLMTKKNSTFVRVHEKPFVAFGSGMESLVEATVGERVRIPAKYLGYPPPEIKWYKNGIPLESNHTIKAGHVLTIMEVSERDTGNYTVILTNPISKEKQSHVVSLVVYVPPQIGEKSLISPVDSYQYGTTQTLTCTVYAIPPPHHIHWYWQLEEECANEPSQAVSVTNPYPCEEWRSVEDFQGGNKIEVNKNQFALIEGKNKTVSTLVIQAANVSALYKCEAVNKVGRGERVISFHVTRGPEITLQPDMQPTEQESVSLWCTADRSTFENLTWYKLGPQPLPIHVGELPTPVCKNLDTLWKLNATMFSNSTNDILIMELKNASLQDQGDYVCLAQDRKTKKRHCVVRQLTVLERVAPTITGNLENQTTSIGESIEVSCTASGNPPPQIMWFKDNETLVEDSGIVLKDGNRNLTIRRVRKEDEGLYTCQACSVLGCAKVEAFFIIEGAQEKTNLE

The target of this test is Recombinant Human (sVEGFR2) sKDR D1-7 (human) (UniProt P35968). The experiment in a line: ELISA on coated soluble KDR. In general terms: An ELISA detects its analyte on a solid surface through an enzyme-linked reagent.

These are yes or no findings as the source states them, for the method shown. Some entries that bind do so weakly or less than the wild type.

B1: KDR1.3 scFv (scFv, V domains shown, not shown: large carriers)
VH: VKLQQSGPSLVKPSQTLSLTCSVTGDSITSGNWNWIRKFPGHKLEYMGYISYSGSTYYNPSLKSRISITRDTSKNQFFLQLNSVTTEDTATYYCARYGGNYFDYWGQGTTVTVSS
For the molecule B1, the binding result is on record as “binds”.

B2: KDR2.6 scFv (scFv, not shown: large carriers)
scFv: QVKLQESGPELEKPGASVKISCKASGYAFIGYNMNWVKKSNEKSLEWIGNIDPYYCGTSYNQKFKGKATMTVDESSSTAFMQLKSLTSEDSAVYYCARGTMITTSYAMDYWGQGTTVTVSSGGGSGGGGSGGGGSDIELTQSPAILSASPGEKVTMTCRASSSVSYMHWYQQKPGSSPKPWIYATSNLASGVPARFSGSGSGTSYSLTISRVEAEDAATYSCQQWSSNLLTFGAGTKLEIKRA
Take B2: the binding entry is given as “binds”.
